# Results are given in words; binding and its absence hold for the method and conditions named. In cells and extracts the contact can be indirect. Some results given as binding are weak or reduced against the parent protein; the word gives no strength.
# The chains behind the UniProt entries cited, without tags or fusion partners. Where a name states a change or a piece, a line headed by the entry shows the natural chain unless it says otherwise. A line that says so, or that is headed by a name, gives the form on record, which may keep a tag or linker.
# UniProt Q9NUM4: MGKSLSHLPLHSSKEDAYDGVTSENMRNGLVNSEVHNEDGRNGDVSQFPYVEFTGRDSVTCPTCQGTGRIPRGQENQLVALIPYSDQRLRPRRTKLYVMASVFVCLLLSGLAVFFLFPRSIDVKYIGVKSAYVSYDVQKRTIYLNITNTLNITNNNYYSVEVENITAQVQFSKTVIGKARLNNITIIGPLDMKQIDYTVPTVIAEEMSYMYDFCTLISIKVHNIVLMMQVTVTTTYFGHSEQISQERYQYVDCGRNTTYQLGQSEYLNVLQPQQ
# Flag-tagged TMEM106B S185 variant (transmembrane protein 106B) (Q9NUM4, form named): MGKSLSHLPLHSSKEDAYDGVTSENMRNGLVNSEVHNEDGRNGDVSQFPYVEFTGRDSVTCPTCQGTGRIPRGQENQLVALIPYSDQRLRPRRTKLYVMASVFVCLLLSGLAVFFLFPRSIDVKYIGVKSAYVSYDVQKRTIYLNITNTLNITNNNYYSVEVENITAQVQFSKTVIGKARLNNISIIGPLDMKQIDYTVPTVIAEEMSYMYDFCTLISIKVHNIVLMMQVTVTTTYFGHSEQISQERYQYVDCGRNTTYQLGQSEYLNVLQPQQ
# UniProt Q9UQN3: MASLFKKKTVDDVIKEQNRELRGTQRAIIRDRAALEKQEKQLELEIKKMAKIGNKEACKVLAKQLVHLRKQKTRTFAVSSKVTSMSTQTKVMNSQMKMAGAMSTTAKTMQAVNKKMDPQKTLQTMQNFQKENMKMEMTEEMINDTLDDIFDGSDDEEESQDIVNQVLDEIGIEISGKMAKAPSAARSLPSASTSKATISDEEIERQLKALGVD
# Key:
# [1] = biological target: Flag-tagged TMEM106B S185 variant (transmembrane protein 106B) (human) (UniProt Q9NUM4); assay: co-IP; HEK293T cells transfected with flag-tagged TMEM106B variants (alone, or with CHMP2B^Intron5-cMyc); lysis in 50 mM Tris-HCl pH 7.5, 150 mM NaCl, 1 % NP40, 0.5 % sodium deoxycholate; anti-FLAG antibody overnight at 4 °C, Protein G agarose; blots with anti-CHMP2B, anti-cMyc or anti-flag
# [2] = biological target: Flag-tagged TMEM106B T185 variant (transmembrane protein 106B) (human) (UniProt Q9NUM4); assay: as above
substance,measurement,setting,value
endogenous charged multivesicular body protein 2B (CHMP2B) (from UniProt Q9UQN3 1-213),binding,[1],binds
same,binding,[2],binds

# — publication PMC4676093
